In PubChem BioAssay AID1347423 (Functional Genomics Laboratory (NCATS/FGL), 2020):
Hit rate of the full screen: of about 52,000 sequences, about 210 (0.4%) were called active.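 How the source made its calls: active means gene whose silencing raises cell survival under the drug, median off-target-corrected z-score across its silencing RNAs 2 or more; inactive means the rest.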 The list shows a part of the results.

Assay: Resistance to Poly (ADP-Ribose) Polymerase inhibitor: Gene Identification via Genome-wide siRNA Screen
Settings: mouse BRCA2 R2336H ES cells, olaparib, CellTiter-Glo viability; stronger effect = higher value
Procedure, shortened: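 Genome-wide siRNA screen (3 siRNAs/gene, 20 nM) in mouse ES cells carrying hypomorphic BRCA2 R2336H; olaparib 500 nM added 48 h post-transfection, CellTiter-Glo viability 72 h later. Normalized to plate-median negative control; MAD z-scores, gene median, seed-adjusted.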

Sequence	z-score
GGACAGCUUGUAAAUUGCCTT against bM64F17.1	inactive: -0.124
GCACUAAAUCCUUUGAUAUTT against Olfr307	inactive: 0.472
GGAGUUCAAGACGGAGAAGTT against Gpr27	inactive: 2.11
CGGAAUCAAACUUUUCGGGTT against Rbm7	inactive: 0.161
GGCCAGGAUUAUAAGUUUUTT against AI504432	inactive: 0.163
GCAAGUUCAUUAAACCAUATT against Rec8L1	inactive: 1.09
CGGAUUGACAAGUUUGCUATT against 0610039G24Rik	inactive: -0.071
CCAUCUUGACACCCAAACUTT against Olfr170	inactive: -0.137
CCGAGUUUGGGAAUAACUUTT against Cacna1a	inactive: -1.67
CCUACAUCACACCUUGAUATT against Olfr1309	inactive: -0.495
GGCAGGUGAACAUCACAGUTT against AW742319	inactive: -0.0276
GGAACAGAGUGUCCACAAUTT against Apof	inactive: 0.919
GCUUUGUAGGAGUUUUUAATT against Rhoq	inactive: 0.168
GGUGCUACGGGACAUUGAGTT against Suv420h2	inactive: -1.79
GGGCAGUGAAAUCCUGUCUTT against Trim16	inactive: -1.35
GGUUUACAAAAAUUCUCAGTT against Hcn1	inactive: 0.856
UUAAGGAAAUGUUCUGUUCTT against Olfr426	inactive: -0.546
GCCAUUGUACAGCUACCAUTT against Figla	inactive: -0.242
GGAAAGAAUAGCAGCGUGGTT against Echs1	inactive: 0.533
GGAGAUGGGUGUCUUGGAGTT against LOC208943	inactive: -1.29
CCUUAAGUUAGCUUUAGUUTT against Pop4	inactive: 0.0497
CCAACGUAAGAAAUUCAGATT against Smoc1	inactive: 0.0872
GGAAAGUCGUCGUAACUAUTT against Dnajc4	inactive: 0.798
GGAGGACAUGGACACAGUCTT against Slc39a7	inactive: -2.14
CCAGUUACGUUAAAAGCUUTT against D1Bwg0491e	inactive: 0.00475
GCUGGGUUUACCUUCCUGATT against Olfr601	inactive: -2.19
GCUUCCCUGCCGUGAUGAUTT against Git1	inactive: -0.17
GGGUCUUAUCUCGAUGAGGTT against Flt3l	inactive: 0.316
GCAACUUGGGAACUCUUUGTT against BC027342	inactive: 0.403

2 records picked at random from the list so far:
Sequence	z-score
UUAAGGAAAUGUUCUGUUCTT against Olfr426	inactive: -0.546
GGAAAGAAUAGCAGCGUGGTT against Echs1	inactive: 0.533
